Measurements: PMC3633876
No constants are given. Whether binding was seen depends on the method and setting. In cells and extracts the contact can be indirect. Some entries that bind do so weakly or less than the wild type.

Amino acid sequences for entries named in this document (tags omitted).
UniProt Q92786: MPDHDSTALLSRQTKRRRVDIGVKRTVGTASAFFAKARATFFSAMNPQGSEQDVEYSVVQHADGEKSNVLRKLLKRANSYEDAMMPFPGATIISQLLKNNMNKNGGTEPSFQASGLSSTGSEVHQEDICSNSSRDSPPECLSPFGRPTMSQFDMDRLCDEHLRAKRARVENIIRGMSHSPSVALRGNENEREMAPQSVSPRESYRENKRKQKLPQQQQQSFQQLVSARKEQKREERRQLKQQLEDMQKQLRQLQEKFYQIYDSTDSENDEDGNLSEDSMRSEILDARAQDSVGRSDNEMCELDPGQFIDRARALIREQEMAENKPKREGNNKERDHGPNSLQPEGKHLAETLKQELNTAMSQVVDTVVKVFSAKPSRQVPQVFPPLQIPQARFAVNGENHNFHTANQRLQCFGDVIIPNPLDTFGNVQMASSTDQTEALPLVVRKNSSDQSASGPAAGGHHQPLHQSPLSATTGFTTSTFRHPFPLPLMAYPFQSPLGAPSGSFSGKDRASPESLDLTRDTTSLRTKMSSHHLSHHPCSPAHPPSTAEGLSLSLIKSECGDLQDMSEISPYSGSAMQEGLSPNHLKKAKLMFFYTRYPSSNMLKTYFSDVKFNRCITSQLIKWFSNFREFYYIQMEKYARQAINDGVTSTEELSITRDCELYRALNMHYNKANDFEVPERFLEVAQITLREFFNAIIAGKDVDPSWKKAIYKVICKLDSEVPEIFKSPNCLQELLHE

Target: endogenous Prox1 in HepG2 (human (endogenous in HepG2)) (UniProt Q92786)
Experiment: co-IP; HepG2 lysate in RIPA buffer; endogenous Prox1 precipitated with anti-Prox1 antibody (Upstate) on protein A/G agarose beads; partners detected by Western blot; also with DNaseI (0.1 µg/µl) and RNaseA (0.2 µg/µl)

B1: hepatocyte nuclear factor 4α (HNF4α), endogenous (protein, UniProt P41235 1-474)
chain: MRLSKTLVDMDMADYSAALDPAYTTLEFENVQVLTMGNDTSPSEGTNLNAPNSLGVSALCAICGDRATGKHYGASSCDGCKGFFRRSVRKNHMYSCRFSRQCVVDKDKRNQCRYCRLKKCFRAGMKKEAVQNERDRISTRRSSYEDSSLPSINALLQAEVLSRQITSPVSGINGDIRAKKIASIADVCESMKEQLLVLVEWAKYIPAFCELPLDDQVALLRAHAGEHLLLGATKRSMVFKDVLLLGNDYIVPRHCPELAEMSRVSIRILDELVLPFQELQIDDNEYAYLKAIIFFDPDAKGLSDPGKIKRLRSQVQVSLEDYINDRQYDSRGRFGELLLLLPTLQSITWQMIEQIQFIKLFGMAKIDNLLQEMLLGGSPSDAPHAHHPLHPHLMQEHMGTNVIVANTMPTHLSNGQMCEWPRPRGQAATPETPQPSPPGGSGSEPYKLLPGAVATIVKPLSAIPQPTITKQEVI
  binding: binds
